Experimental data published in patent US10655183B2, “Carcinoma diagnosis and treatment based on ODC1 genotype” (THE ARIZONA BOARD OF REGENTS ON BEHALF OF THE UNIVERSITY OF …, priority 2014, dated 2020).
Values joined by “and” are separate entries in the source; they are usually repeats but may differ in a detail not shown here. Equal values may be shown once.

Tests used:
[1] = tested on: ODC1 +263 T oligonucleotide G-quadruplex; experiment: CD thermal stability (TM) of G-quadruplex with NSC176327; type: binding, human
Procedure: (§1) Then the samples were heated to 95° C. and slowly cooled to room temperature. For double-stranded conditions, the G-rich and C-rich strands of DNA were annealed by heating the strands to 95° C., rapidly cooling to the strands TM, holding at that temperature for 5 min, and cooling to room temperature at 1° C./min in a Qiagen PCR machine (RotorGene Q Series software). The sample was split to 0 or 100 mM KCl in the presence or absence of 530 ng recombinant human Sp1 protein (Promega, part number E639A) and heated again to the dsDNA annealing temperature, and then allowed to slowly cool again. CD spectra data were recorded on a Jasco-810 spectropolarmeter using a quartz cell with a 1-mm optical path length, with a response time of 1 s. Each sample was processed with three averaged scans within the range of 200 to 350 nm and results were baseline-corrected for signal contributions due to buffer and salts. Thermal melts (TMs) were determined on the Jasco CD instrument, at 263 nm from 4° C. to 90° C. (heating rate of 2° C./min).
(§2) Each of these experiments was done in the presence of 10 mM KCl to allow for equilibrating G-quadruplex formation. […] Although molar ellipticity of both the +263 T and G allele G-quadruplex peaks decreased by ˜⅓ in the presence of 10 mM KCl and the compound, thermal stabilities increased to 75 and 68° C., which translate to nominal ΔTM increases over the DMSO-matched experiment at +14 and +11° C., respectively (Table 3).

[2] = tested on: ODC1 +263 G oligonucleotide G-quadruplex; experiment: as above; type: binding, human
Procedure: as §1, §2

[3] = 5 uM NSC176327, 10 mM KCl, oligonucleotide 5 μm, parallel G-quadruplex peak 262-264 nm

**Q.** COc1ccc2c(c1)c1c(C)c3cnccc3c(C)c1n2CCCN [NSC176327] was tested. Which “decrease of molar ellipticity of G-quadruplex peaks” value ([1]; 5 μM NSC176327, 10 mM KCl) did it give?
**A.** ⅓

**Q.** And the TM [1, 3]?
**A.** 75 °C and 74.69 °C

**Q.** What about the “decrease of molar ellipticity of G-quadruplex peaks” value ([2]; 5 μM NSC176327, 10 mM KCl) of the same molecule?
**A.** ⅓

**Q.** What about the TM [2, 3] of the same molecule?
**A.** 68 °C and 68.45 °C
